Results: paper PMC8641947
No constants are given. Whether binding was seen depends on the method and setting. In cells and extracts the contact can be indirect. Some results given as binding are weak or reduced against the parent protein; the word gives no strength. Sequences can lack the tags named with a protein.

Protein sequences, listed by entry. Tags and fused reporters are not part of them. Lines headed by an entry give the natural chain unless they say otherwise; changes in a name come on top.
UniProt Q9NZI8: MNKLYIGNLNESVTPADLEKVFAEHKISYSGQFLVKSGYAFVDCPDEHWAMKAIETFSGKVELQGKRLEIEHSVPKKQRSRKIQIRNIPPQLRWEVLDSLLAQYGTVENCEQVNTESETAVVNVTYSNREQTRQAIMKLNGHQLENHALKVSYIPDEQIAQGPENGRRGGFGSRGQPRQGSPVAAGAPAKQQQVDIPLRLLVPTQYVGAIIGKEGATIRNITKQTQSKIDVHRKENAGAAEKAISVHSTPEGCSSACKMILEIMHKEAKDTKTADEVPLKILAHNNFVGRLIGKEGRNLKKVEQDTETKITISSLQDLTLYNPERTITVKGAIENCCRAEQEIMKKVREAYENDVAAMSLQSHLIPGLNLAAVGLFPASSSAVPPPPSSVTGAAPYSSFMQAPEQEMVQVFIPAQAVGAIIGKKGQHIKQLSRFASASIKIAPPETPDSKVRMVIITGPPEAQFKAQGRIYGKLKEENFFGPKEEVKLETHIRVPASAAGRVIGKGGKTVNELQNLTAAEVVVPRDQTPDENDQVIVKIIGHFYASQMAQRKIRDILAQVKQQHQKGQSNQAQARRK
UniProt P63208: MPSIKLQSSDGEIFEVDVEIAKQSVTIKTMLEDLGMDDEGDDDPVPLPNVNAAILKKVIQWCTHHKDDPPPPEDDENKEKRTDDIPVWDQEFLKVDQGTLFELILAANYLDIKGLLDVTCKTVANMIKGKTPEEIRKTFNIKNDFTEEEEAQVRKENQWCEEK

T1: Flag-FBXO45 (human F-box/SPRY domain-containing protein 1 tagged with 3xFlag) (human) (UniProt P0C2W1)
T1 sequence: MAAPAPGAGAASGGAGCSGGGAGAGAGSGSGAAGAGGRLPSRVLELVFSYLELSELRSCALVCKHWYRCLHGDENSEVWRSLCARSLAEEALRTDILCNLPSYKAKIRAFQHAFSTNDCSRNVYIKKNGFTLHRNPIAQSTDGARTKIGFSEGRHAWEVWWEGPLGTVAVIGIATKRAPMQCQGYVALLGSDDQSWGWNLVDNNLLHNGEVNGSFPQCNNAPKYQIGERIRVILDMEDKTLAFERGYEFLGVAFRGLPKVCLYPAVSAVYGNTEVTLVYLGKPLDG

T2: Flag-FBXO45 ΔF (FBXO45 without F-box domain, amino acids 39-82 deleted, tagged with 3xFlag) (human) (UniProt P0C2W1)
T2 sequence: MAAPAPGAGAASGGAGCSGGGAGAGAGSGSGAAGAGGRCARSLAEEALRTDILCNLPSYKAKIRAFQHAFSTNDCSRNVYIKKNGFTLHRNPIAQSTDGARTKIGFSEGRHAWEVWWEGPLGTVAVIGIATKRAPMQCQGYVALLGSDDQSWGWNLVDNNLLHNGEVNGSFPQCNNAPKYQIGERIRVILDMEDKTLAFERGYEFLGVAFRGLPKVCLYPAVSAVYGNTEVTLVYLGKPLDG


Experiments:
[1] = target: T1, Flag-FBXO45 (human F-box/SPRY domain-containing protein 1 tagged with 3xFlag) (human); experiment: co-IP; HepG2 and HCCLM3 cells transfected with Flag-FBXO45 or Flag-FBXO45 ΔF for 48 hr (72 hr for SKP1/cullin-1); lysis in 20 mM Tris-HCl pH 8.0, 100 mM NaCl, 1% NP-40; anti-Flag antibody or normal IgG and Protein A/G PLUS-Agarose, 4 °C; Western blot
[2] = target: T2, Flag-FBXO45 ΔF (FBXO45 without F-box domain, amino acids 39-82 deleted, tagged with 3xFlag) (human); experiment: as above
[3] = target: Insulin-like growth factor 2 mRNA-binding protein 1 (IGF2BP1), endogenous (human (endogenous in HepG2 and HCCLM3)) (UniProt Q9NZI8); experiment: co-IP; HepG2 and HCCLM3 cells transfected with Flag-FBXO45 for 48 hr; lysis in 20 mM Tris-HCl pH 8.0, 100 mM NaCl, 1% NP-40; endogenous IGF2BP1 precipitated with antibody and Protein A/G PLUS-Agarose, 4 °C; Western blot for FBXO45

Row | Molecule | binding [1] | binding [2] | binding [3]
1 | Insulin-like growth factor 2 mRNA-binding protein 1 (IGF2BP1), endogenous (from UniProt Q9NZI8-1 1-577) | binds | no binding | 
2 | SKP1 (from UniProt P63208 1-163) | binds |  | 
3 | Flag-FBXO45 (human F-box/SPRY domain-containing protein 1 tagged with 3xFlag) (protein, UniProt P0C2W1 1-286) MAAPAPGAGAASGGAGCSGGGAGAGAGSGSGAAGAGGRLPSRVLELVFSYLELSELRSCALVCKHWYRCLHGDENSEVWRSLCARSLAEEALRTDILCNLPSYKAKIRAFQHAFSTNDCSRNVYIKKNGFTLHRNPIAQSTDGARTKIGFSEGRHAWEVWWEGPLGTVAVIGIATKRAPMQCQGYVALLGSDDQSWGWNLVDNNLLHNGEVNGSFPQCNNAPKYQIGERIRVILDMEDKTLAFERGYEFLGVAFRGLPKVCLYPAVSAVYGNTEVTLVYLGKPLDG |  |  | binds
